Article PMC4423211 (2015)
Results are given in words; binding and its absence hold for the method and conditions named. For some assays here: Binding can be weak; no strength is given. Sequences can lack the tags named with a protein.

How the values were obtained:
[1] = molecular target: T1, IL-1RAcP-ECD-Fc, wild type (mouse) (UniProt Q61730); assay: SPR; equilibrium; Biacore T200, 25 °C, 10 mM Hepes (pH 7.9), 150 mM NaCl, 0.05% Tween-20; IL-1RAcP-ECD-Fc captured (about 700 RU) by anti-Fc antibodies immobilised on a CM5 chip; PTPδ Ig1–Fn1 variants or mutants injected as analytes, 15.6 to 4,000 nM; both purified
T1 sequence: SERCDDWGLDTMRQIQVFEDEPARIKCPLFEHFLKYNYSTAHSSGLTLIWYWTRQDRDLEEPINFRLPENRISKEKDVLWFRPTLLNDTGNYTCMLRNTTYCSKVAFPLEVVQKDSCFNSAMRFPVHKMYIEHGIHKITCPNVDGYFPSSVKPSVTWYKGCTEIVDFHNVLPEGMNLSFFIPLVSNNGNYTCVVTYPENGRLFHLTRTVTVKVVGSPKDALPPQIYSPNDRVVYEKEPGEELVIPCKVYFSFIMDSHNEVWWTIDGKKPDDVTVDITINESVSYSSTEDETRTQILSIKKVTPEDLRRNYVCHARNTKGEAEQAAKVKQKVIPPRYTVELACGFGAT

[2] = molecular target: T2, IL1RAPL1-ECD-His6, wild type (mouse) (UniProt P59823); assay: SPR; equilibrium; Biacore T200, 25 °C, 10 mM Hepes (pH 7.9), 150 mM NaCl, 0.05% Tween-20; IL1RAPL1-ECD-His6 amine-coupled on a CM5 chip (about 2,000 RU); PTPδ Ig1–Fn1 variants or mutants injected as analytes, 15.6 to 4,000 nM; both purified
T2 sequence: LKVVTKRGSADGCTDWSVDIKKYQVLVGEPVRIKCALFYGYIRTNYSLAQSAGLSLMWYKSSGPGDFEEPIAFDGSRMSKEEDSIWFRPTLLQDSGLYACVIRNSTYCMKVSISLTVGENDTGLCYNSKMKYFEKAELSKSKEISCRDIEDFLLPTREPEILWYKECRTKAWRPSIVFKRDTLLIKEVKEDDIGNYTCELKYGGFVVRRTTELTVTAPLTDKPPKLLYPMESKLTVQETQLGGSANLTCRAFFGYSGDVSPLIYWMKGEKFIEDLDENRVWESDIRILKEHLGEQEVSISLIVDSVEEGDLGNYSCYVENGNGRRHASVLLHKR

[3] = molecular target: T3, IL-1RAcP-ECD (His6-tagged, for crystallography) (mouse) (UniProt Q61730); assay: crystal structure; sitting drop vapour diffusion at 20 °C; the two proteins mixed at a molar ratio of 1:1 to about 6 g/l before crystallisation; both purified
T3 sequence: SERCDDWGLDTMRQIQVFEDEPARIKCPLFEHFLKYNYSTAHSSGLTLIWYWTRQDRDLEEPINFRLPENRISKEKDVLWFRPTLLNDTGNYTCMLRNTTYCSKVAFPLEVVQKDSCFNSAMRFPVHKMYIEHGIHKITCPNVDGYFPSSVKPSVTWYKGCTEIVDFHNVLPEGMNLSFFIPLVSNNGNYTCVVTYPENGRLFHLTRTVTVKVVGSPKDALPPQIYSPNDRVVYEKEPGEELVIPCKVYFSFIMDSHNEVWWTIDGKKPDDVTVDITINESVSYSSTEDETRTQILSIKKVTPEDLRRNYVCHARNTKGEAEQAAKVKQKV

[4] = molecular target: T1, IL-1RAcP-ECD-Fc, wild type (mouse); assay: pull-down; purified IL-1RAcP-Fc or IL1RAPL1-Fc mixed with serially deleted PTPδ proteins at 1:1 molar ratio, immobilised on Protein G Sepharose beads, washed with PBS, eluted with SDS sample buffer, SDS-PAGE; both purified
[5] = molecular target: T2, IL1RAPL1-ECD-His6, wild type (mouse); assay: crystal structure; sitting drop vapour diffusion at 20 °C; the two proteins mixed at a molar ratio of 1:1 to about 6 g/l before crystallisation; both purified
[6] = molecular target: T4, IL1RAPL1-Fc (C-terminally Fc-tagged IL1RAPL1-ECD) (mouse) (UniProt P59823); assay: pull-down; purified IL-1RAcP-Fc or IL1RAPL1-Fc mixed with serially deleted PTPδ proteins at 1:1 molar ratio, immobilised on Protein G Sepharose beads, washed with PBS, eluted with SDS sample buffer, SDS-PAGE; both purified
T4 sequence: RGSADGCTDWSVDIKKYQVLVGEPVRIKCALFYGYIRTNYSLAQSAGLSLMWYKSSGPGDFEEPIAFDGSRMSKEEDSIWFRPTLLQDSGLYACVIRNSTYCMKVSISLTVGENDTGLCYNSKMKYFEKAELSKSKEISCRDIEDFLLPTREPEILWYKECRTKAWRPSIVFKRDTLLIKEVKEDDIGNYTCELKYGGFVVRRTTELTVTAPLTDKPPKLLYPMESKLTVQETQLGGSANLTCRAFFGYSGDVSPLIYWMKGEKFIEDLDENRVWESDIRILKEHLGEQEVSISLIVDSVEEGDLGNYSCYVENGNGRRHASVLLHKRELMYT

For “PTPδ Ig1–Fn1 Y273A (mouse) (domain or fragment)”, the binding [1] was “no binding (tested: analyte 15.6 to 4,000 nM)”.
With “PTPδ Ig1–Fn1 splicing variant meA3/+ (mouse) (domain or fragment)” the binding [2] was “no binding (tested: analyte 15.6 to 4,000 nM)”.
With “PTPδ Ig1–Fn1 splicing variant meA3/− (mouse) (domain or fragment)” the binding [2] was “no binding (tested: analyte 15.6 to 4,000 nM)”.
For “PTPδ Ig1–Fn1 splicing variant meA6/− (mouse) (domain or fragment)”, the binding [2] was “no binding (tested: analyte 15.6 to 4,000 nM)”.
For “PTPδ Ig1–Fn1 splicing variant −/+ (no meA, with meB) (mouse) (domain or fragment)”, the binding [2] was “no binding (tested: analyte 15.6 to 4,000 nM)”.
For “PTPδ Ig1–Fn2 (mouse) (domain or fragment)”, the binding [3] was “binds” and the binding [4] was “binds”.
For “PTPδ Ig1–Ig2 (mouse) (domain or fragment)”, the binding [5] was “binds”, the binding [4] was “no binding” and the binding [6] was “binds”.
In the case of “PTPδ-ECD (full-length extracellular domain) (mouse) (domain or fragment)”, the binding [5] is reported as “binds”.
